Laboratory results as given in patent publication US20050074814A1, “Relaxin3-GPCR135 complexes and their production and use” (priority 2003, published 2005).
No constants are given. Whether binding was seen depends on the method and setting. Some entries that bind do so weakly or less than the wild type.

Legend:
[1] = biological target: T1, rat GPCR135 long form (rat); test: radioligand binding on COS7 cells transfected with rGPCR135L, total binding vs competition with unlabeled human relaxin3
T1 sequence: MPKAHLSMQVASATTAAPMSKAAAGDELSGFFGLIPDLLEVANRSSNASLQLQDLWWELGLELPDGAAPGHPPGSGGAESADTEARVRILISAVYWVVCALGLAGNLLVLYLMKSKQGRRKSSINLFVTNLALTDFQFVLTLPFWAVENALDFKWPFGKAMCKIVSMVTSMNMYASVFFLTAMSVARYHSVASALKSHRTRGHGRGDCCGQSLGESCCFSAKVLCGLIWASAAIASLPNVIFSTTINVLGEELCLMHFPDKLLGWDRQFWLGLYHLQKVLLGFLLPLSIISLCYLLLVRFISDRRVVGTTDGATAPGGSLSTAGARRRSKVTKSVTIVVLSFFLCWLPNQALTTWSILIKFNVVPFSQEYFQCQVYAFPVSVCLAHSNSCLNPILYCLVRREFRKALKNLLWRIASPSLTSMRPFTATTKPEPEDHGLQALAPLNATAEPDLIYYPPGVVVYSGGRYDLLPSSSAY

mouse GPCR135 (mouse) [2] = biological target: T2, mouse GPCR135 (mouse) (UniProt Q8BGE9); test: radioligand binding on COS7 cells transfected with mGPCR135, total binding vs competition with unlabeled human relaxin3
T2 sequence: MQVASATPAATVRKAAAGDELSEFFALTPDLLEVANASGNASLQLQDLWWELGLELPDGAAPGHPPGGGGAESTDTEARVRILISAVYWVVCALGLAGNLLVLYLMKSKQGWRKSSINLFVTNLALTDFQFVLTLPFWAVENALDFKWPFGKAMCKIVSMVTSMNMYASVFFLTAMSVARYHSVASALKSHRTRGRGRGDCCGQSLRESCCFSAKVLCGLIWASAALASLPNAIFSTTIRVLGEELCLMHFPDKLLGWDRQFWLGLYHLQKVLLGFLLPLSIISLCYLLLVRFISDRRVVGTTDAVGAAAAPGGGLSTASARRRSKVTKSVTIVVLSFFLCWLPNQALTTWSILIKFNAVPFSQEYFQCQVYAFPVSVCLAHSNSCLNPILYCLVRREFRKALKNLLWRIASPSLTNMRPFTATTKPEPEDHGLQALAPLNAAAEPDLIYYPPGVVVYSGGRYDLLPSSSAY

[3] = biological target: T1, rat GPCR135 long form (rat); test: radio-ligand binding on recombinant cells
[4] = biological target: T3, rat GPCR135 short form (rat); test: radio-ligand binding on recombinant cells
T3 sequence: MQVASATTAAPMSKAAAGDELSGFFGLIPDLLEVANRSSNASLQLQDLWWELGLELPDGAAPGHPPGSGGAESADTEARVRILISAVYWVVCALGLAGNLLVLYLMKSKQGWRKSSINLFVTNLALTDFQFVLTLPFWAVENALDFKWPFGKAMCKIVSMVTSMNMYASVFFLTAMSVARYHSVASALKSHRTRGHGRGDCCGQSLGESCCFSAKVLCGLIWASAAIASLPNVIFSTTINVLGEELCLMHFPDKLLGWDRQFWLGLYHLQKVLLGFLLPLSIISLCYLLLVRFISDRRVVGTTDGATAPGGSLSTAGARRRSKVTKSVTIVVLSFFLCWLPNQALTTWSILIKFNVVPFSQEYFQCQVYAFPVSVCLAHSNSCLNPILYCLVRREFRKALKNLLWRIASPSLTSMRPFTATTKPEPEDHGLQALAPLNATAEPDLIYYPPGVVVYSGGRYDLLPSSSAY

[5] = biological target: T1, rat GPCR135 long form (rat); test: radioligand binding on transfected COS-7 cells, with or without 1 uM unlabeled relaxin3 as competitor
mouse GPCR135 (mouse) [6] = biological target: T2, mouse GPCR135 (mouse); test: as above
[7] = biological target: T3, rat GPCR135 short form (rat); test: as above
[8] = biological target: T3, rat GPCR135 short form (rat); test: radioligand binding on COS7 cells transfected with rGPCR135s, total binding vs competition with unlabeled human relaxin3

binding [1]: binds
binding (mouse GPCR135 (mouse) [2]): binds
binding [3]: binds
binding [4]: binds
binding [5]: binds
binding (mouse GPCR135 (mouse) [6]): binds
binding [7]: binds
binding [8]: binds
B1: 125I-labeled human relaxin3 (ligand)
chain 1: DVLAGLSSSCCKWGCSKSEISSLC
chain 2: RAAPYGVRLCGREFIRAVIFTCGGSRW
modifications: 125I label (which chain and residue are labelled is not stated)
